Screen size: about 52,000 sequences; about 210 (0.4%) were called active.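 Rule for the calls: active = gene whose silencing raises cell survival under the drug, median off-target-corrected z-score across its silencing RNAs 2 or more; inactive = the rest.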 This is one part of the list.
Assay: Resistance to Poly (ADP-Ribose) Polymerase inhibitor: Gene Identification via Genome-wide siRNA Screen
Details: mouse BRCA2 R2336H ES cells, olaparib, CellTiter-Glo viability; hits give high values
Method in brief: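 Mouse BRCA2 R2336H ES cells were reverse-transfected with siRNA (20 nM final), treated at 48 h with 500 nM olaparib, and read by CellTiter-Glo after 72 h. Scores: MAD-based z per siRNA, median per gene, seed off-target correction.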

| Sequence | z-score |
| --- | --- |
| GGUCUCAUAUCCUCUUUGGTT against Pex11a | inactive: -0.891 |
| GCUGAGGAGGUUGUAUCAUTT against 4833415N24Rik | inactive: 0.706 |
| GACCCUUUUCACCAAGACATT against Gpsn2 | inactive: -0.535 |
| AAACCUGUCGUAAAAGCUGTT against Mt4 | inactive: 0.509 |
| GGCACUUUGUUUAGGCAAATT against Tcstv1 | inactive: -0.527 |
| CGGUACAAAUGAUUUCUGATT against Pcolce2 | inactive: 1.79 |
| GCUAUGGGACUUAGGAAGGTT against Paqr6 | inactive: 0.702 |
| GCAGAGCAUGCCUUACUGUTT against Eif4ebp1 | inactive: -0.257 |
| GCGUGAGGAUGUAGACUACTT against Mmp12 | inactive: -2.12 |
| GAGUUGUCCUCUUCACCAUTT against Olfr483 | inactive: 0.339 |
| GGAGAAAUCAAACACAAGUTT against Slco5a1 | inactive: -0.446 |
| CCCACUUCUCAGAUGAAAUTT against Zcchc11 | inactive: -1.16 |
| GGAUCUGAAGCAUUUUAAATT against Nalp10 | inactive: 0.728 |
| CGGUACCUUGUACAUGGUUTT against Ptprn2 | inactive: 0.584 |
| GGAUUCAUCGGGUCAGGAGTT against 4933425I22Rik | inactive: -0.439 |
| GGUCAAUGCUGUUAAGAAATT against Sart1 | inactive: -2.27 |
| GGAUCUUUUCGUGUCCUGCTT against Pik3ap1 | inactive: 0.775 |
| CCCAUGGGAAGUUCAUCUCTT against Olfr123 | inactive: 1.66 |
| CCUCAGGAUACAGACCCACTT against MGC73851 | inactive: -0.927 |
| GGAGAAAGAUGAAGUCUUUTT against Sav1 | inactive: -1.78 |
| GGCUAUCGAUGAGAAAAGUTT against BC065151 | inactive: -2.47 |
| GGUGCUGCUAGUGAACAAGTT against E2f4 | inactive: 0.647 |

| Sequence | z-score |
| --- | --- |
| GGUUAUAAAACUAUGGAACTT against Map2k5 | inactive: 0.58 |
| GGCACACCUAGACACAGAATT against D18Wsu98e | inactive: -0.245 |
| CCAUUAAAACCACUAUCUGTT against 9130023F12Rik | inactive: 0.196 |
| GCAAGAAGAGGUGUGCGUCTT against 2610204M08Rik | inactive: 0.665 |
| GCCACCUCCUACCAAAUGUTT against Sprr4 | inactive: -1.41 |
| GGAUGAAAACACUGAAUACTT against Olfr644 | inactive: -0.889 |
| UUGGAGAGAAGCCUAUAACTT against 4930451I11Rik | inactive: -0.838 |
| GGAAUUCGGGAAAUUGGUCTT against A230062G08Rik | inactive: 0.868 |
| CCUUAAGCAGAGUUCAAAGTT against Timm22 | inactive: 0.042 |
| GGAGAUGAAGUCAUUGAAUTT against Casq1 | inactive: -0.021 |
| GGGCUACAGCCUUGAAAACTT against Lyzl4 | inactive: -0.204 |
| GGAAGAGCAGGCAUCCAUATT against 4432417N03Rik | inactive: -0.307 |
| GGUCCGAAAGGCAGCUAUATT against Fcer1g | inactive: -0.726 |
| GGAGAAGAGAAAGAUUCUUTT against Dhx9 | inactive: 0.134 |
| GGAUAAGAGAAAAACAGAATT against Ect2 | inactive: 0.771 |
| CUAUGUGGUCACAAUAGAGTT against Olfr1360 | inactive: -0.137 |
| GGAAAGGGAGAUUUGUAAGTT against Hoxc4 | inactive: -0.107 |
| GGUAGAUCCAGUGUUUACATT against 5730455A04Rik | inactive: 0.408 |
| GGAGGAACCUAAUUGAAUGTT against 2310016A09Rik | inactive: 1.14 |
| GCCCUUUUCCUUAAUUUAUTT against Neurl | inactive: -0.289 |
| GGUUUGAAGUGUUGACAUUTT against Drctnnb1a | inactive: -0.399 |
| GGCUUUGUCGUUAAUUUUUTT against Auh | inactive: 0.562 |

For convenience, some entries already given.

| Sequence | z-score |
| --- | --- |
| GGUAGAUCCAGUGUUUACATT against 5730455A04Rik | inactive: 0.408 |
| GGAGGAACCUAAUUGAAUGTT against 2310016A09Rik | inactive: 1.14 |
| GCCCUUUUCCUUAAUUUAUTT against Neurl | inactive: -0.289 |
| GGUUUGAAGUGUUGACAUUTT against Drctnnb1a | inactive: -0.399 |

(cont.)

| Sequence | z-score |
| --- | --- |
| GGUUGGUCAGACAAGGAUCTT against Mic2l1 | inactive: 1.38 |
| GGAGUCGUCACAGCAGAGATT against Stag2 | inactive: -1.07 |
| GGGUCUCUCAAAGAUCCUGTT against BC026432 | inactive: 0.885 |
| GGAUGGGAAGGUGAUUGUCTT against Gnb5 | inactive: -2.39 |
| GGGAGGCUCUGGUGAACAATT against Cyp2b13 | inactive: -1.65 |
| GGAAUACUGCUACAAAUGATT against Vav1 | inactive: 1.73 |
| CCAAUGAUUUCCUGCUAAATT against Lst1 | inactive: 0.728 |
| GCUAGAGUGUCAUGACUUUTT against BC038156 | inactive: -0.194 |
| CGGCGACAUUGUUUUGCUATT against Acvr2 | inactive: -0.255 |
| CGAAAUUUACAGGAGAUCCTT against Nup93 | inactive: 0.514 |
| CGGGAAGCUAUCAUCAAAATT against Rgs13 | inactive: 0.119 |
| GGUGGCUUCAGUAAGUUCCTT against Dusp6 | inactive: -0.0667 |
| GGGAGUGCCUGGGUUUGUATT against 0710001B24Rik | inactive: -1.51 |
| GGAAUCAUAUCAGAAACUATT against Pde4b | inactive: 1.75 |
| GCAUCCACUAUGGAGAAACTT against Ect2 | inactive: 0.257 |
| GGGAUUGAUUUCAACAAUGTT against V1rc14 | inactive: 0.137 |
| GCCACUACAUAUAAACAUCTT against Spag1 | inactive: 0.131 |
| GGUAUGUUUACCAUAGCUCTT against Tbx18 | inactive: 2.39 |
| GGGCAAAUAUCCUUAGUCATT against AW125753 | inactive: 0.568 |
| GGCCGUGGUAGAUUUCCUCTT against BC025816 | inactive: 1.26 |
| GCUGUUCUGCAAAACUGGATT against Rbpms | inactive: -0.524 |
| GCAAGAUACCAAAUGCAUATT against Zfp316 | inactive: 0.225 |
